# PubChem BioAssay AID1259308, NCATS, 2017
# Purpose: 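Genes whose loss raises luciferase production in HEK293 cells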 (primary screen)
# System: human HEK293 embryonic kidney cells stably expressing firefly luciferase (HEK-CMV-Luc2-Hygro)
# Reagent: single siRNA against human genes, 0.8 pmol siRNA per well
# Timing: 72 h
# Detection: 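Reporter luminescence and viable-cell signal on separate replicate plates, given as percent of non-targeting control and median/MAD z-scores, plus per-cell luciferase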
# Scale: total luciferase, z-score and total luciferase, % of control: higher = more reporter protein produced; luciferase per cell, z-score: higher = more reporter output per viable cell; viable cells, % of control: higher = more viable cells
# Rule for the call: 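Active when the median/MAD z-score for overall luciferase is greater than 3; a gene was taken forward for validation with new siRNAs if at least two of its three siRNAs passed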
# Meaning of the calls: active = raised luciferase; inactive = no rise
# Shown is an unselected part of about 59,000 reagents tested. Of all reagents, about 1,510 (2.6%) were called active. 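Calls use total luciferase alone and ignore viability, so some active siRNAs may act by altering cell number.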 Reagents against one gene are numbered here.
target,siRNA no.,"total luciferase, z-score","total luciferase, % of control","luciferase per cell, z-score","viable cells, % of control",activity call
S100A11,1,0.28,87.5,-0.444,110,inactive
S100A11,2,1.31,108,0.991,93,inactive
S100A11,3,-0.0727,80.4,0.246,84.2,inactive
RPTOR,1,-0.999,62,-0.582,80.8,inactive
RPTOR,2,-0.0651,80.6,0.364,81.8,inactive
RPTOR,3,-0.88,64.4,-0.861,90.3,inactive
VCY,1,-0.68,68.4,-1.09,102,inactive
VCY,2,-0.106,79.8,0.336,81.6,inactive
VCY,3,2.04,123,2.58,69.4,inactive
WDR33,1,-1.37,54.7,0.335,55.9,inactive
WDR33,2,-1.23,57.3,-1.33,91,inactive
WDR33,3,-1.24,57.3,-1.42,93.1,inactive
RNASE4,1,1.27,107,0.627,101,inactive
RNASE4,2,0.752,96.8,0.822,87.2,inactive
RNASE4,3,-0.683,68.3,-0.669,91,inactive
GOLGA6B,1,0.61,94,0.0173,105,inactive
GOLGA6B,2,-0.15,78.9,-0.323,96,inactive
GOLGA6B,3,0.349,88.8,0.166,95,inactive
BFAR,1,0.93,100,1.35,78.6,inactive
BFAR,2,2,122,1.12,101,inactive
BFAR,3,0.623,94.3,0.226,99.3,inactive
FLG2,1,-0.232,77.3,-0.00682,86.5,inactive
FLG2,2,0.887,99.5,0.292,103,inactive
FLG2,3,-1.25,56.9,-0.284,68.6,inactive

4 consecutive reagents already listed:
target,siRNA no.,"total luciferase, z-score","total luciferase, % of control","luciferase per cell, z-score","viable cells, % of control",activity call
BFAR,1,0.93,100,1.35,78.6,inactive
BFAR,2,2,122,1.12,101,inactive
BFAR,3,0.623,94.3,0.226,99.3,inactive
FLG2,1,-0.232,77.3,-0.00682,86.5,inactive
